The target in this experiment is Ledgf/p75 (product of the PSIP1 gene) (UniProt O75475). The experiment in a line: two-hybrid; yeast two-hybrid screens; unpublished data; bait, prey and conditions not told.

Amino acid sequences for entries named in this document (tags omitted).
UniProt O75475: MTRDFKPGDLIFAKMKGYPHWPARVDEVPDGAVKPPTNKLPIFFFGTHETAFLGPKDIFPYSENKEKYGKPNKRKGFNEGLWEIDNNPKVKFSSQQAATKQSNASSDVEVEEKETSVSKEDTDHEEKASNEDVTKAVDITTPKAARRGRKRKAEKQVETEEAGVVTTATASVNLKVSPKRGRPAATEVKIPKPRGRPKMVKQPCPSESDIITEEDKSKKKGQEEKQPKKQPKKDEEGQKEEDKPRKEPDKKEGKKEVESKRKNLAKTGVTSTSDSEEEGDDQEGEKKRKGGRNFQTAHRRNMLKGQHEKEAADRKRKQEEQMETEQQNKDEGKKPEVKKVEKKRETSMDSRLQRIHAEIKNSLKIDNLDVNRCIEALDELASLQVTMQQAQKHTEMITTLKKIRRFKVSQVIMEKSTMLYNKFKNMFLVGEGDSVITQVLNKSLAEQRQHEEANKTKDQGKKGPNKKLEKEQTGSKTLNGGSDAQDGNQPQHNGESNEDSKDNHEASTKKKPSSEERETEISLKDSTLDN

Results are given in words; binding and its absence hold for the method and conditions named. Some binding calls cover weakened binding; strength is not graded here.

B1: WDHD1 gene product (protein, UniProt O75717 1-1129)
chain: MPATRKPMRYGHTEGHTEVCFDDSGSFIVTCGSDGDVRIWEDLDDDDPKFINVGEKAYSCALKSGKLVTAVSNNTIQVHTFPEGVPDGILTRFTTNANHVVFNGDGTKIAAGSSDFLVKIVDVMDSSQQKTFRGHDAPVLSLSFDPKDIFLASASCDGSVRVWQISDQTCAISWPLLQKCNDVINAKSICRLAWQPKSGKLLAIPVEKSVKLYRRESWSHQFDLSDNFISQTLNIVTWSPCGQYLAAGSINGLIIVWNVETKDCMERVKHEKGYAICGLAWHPTCGRISYTDAEGNLGLLENVCDPSGKTSSSKVSSRVEKDYNDLFDGDDMSNAGDFLNDNAVEIPSFSKGIINDDEDDEDLMMASGRPRQRSHILEDDENSVDISMLKTGSSLLKEEEEDGQEGSIHNLPLVTSQRPFYDGPMPTPRQKPFQSGSTPLHLTHRFMVWNSIGIIRCYNDEQDNAIDVEFHDTSIHHATHLSNTLNYTIADLSHEAILLACESTDELASKLHCLHFSSWDSSKEWIIDLPQNEDIEAICLGQGWAAAATSALLLRLFTIGGVQKEVFSLAGPVVSMAGHGEQLFIVYHRGTGFDGDQCLGVQLLELGKKKKQILHGDPLPLTRKSYLAWIGFSAEGTPCYVDSEGIVRMLNRGLGNTWTPICNTREHCKGKSDHYWVVGIHENPQQLRCIPCKGSRFPPTLPRPAVAILSFKLPYCQIATEKGQMEEQFWRSVIFHNHLDYLAKNGYEYEESTKNQATKEQQELLMKMLALSCKLEREFRCVELADLMTQNAVNLAIKYASRSRKLILAQKLSELAVEKAAELTATQVEEEEEEEDFRKKLNAGYSNTATEWSQPRFRNQVEEDAEDSGEADDEEKPEIHKPGQNSFSKSTNSSDVSAKSGAVTFSSQGRVNPFKVSASSKEPAMSMNSARSTNILDNMGKSSKKSTALSRTTNNEKSPIIKPLIPKPKPKQASAASYFQKRNSQTNKTEEVKEENLKNVLSETPAICPPQNTENQRPKTGFQMWLEENRSNILSDNPDFSDEADIIKEGMIRFRVLSTEERKVWANKAKGETASEGTEAKKRKRVVDESDETENQEEKAKENLNLSKKQKPLDFSTNQKLSAFAFKQE
As to B1, the binding result is “binds”.

B2: WDR46 gene product (protein, UniProt O15213 1-610)
chain: METAPKPGKDVPPKKDKLQTKRKKPRRYWEEETVPTTAGASPGPPRNKKNRELRPQRPKNAYILKKSRISKKPQVPKKPREWKNPESQRGLSGTQDPFPGPAPVPVEVVQKFCRIDKSRKLPHSKAKTRSRLEVAEAEEEETSIKAARSELLLAEEPGFLEGEDGEDTAKICQADIVEAVDIASAAKHFDLNLRQFGPYRLNYSRTGRHLAFGGRRGHVAALDWVTKKLMCEINVMEAVRDIRFLHSEALLAVAQNRWLHIYDNQGIELHCIRRCDRVTRLEFLPFHFLLATASETGFLTYLDVSVGKIVAALNARAGRLDVMSQNPYNAVIHLGHSNGTVSLWSPAMKEPLAKILCHRGGVRAVAVDSTGTYMATSGLDHQLKIFDLRGTYQPLSTRTLPHGAGHLAFSQRGLLVAGMGDVVNIWAGQGKASPPSLEQPYLTHRLSGPVHGLQFCPFEDVLGVGHTGGITSMLVPGAGEPNFDGLESNPYRSRKQRQEWEVKALLEKVPAELICLDPRALAEVDVISLEQGKKEQIERLGYDPQAKAPFQPKPKQKGRSSTASLVKRKRKVMDEEHRDKVRQSLQQQHHKEAKAKPTGARPSALDRFVR
Consider B2, for which the binding result is recorded as “binds”.
